Laboratory results: paper PMC9141512
These are yes or no findings as the source states them, for the method shown. Where a sequence is shown, tags or fusion partners need not be part of it.

Molecular target: human DIO1 (containing selenocysteine), Flag-tagged, expressed in COS7 cells (human) (UniProt P49895)
Experiment: SDS-PAGE with Western blot; membrane fractions of COS7 cells; anti-Flag blot; shows only an SDS-stable dimer

binding: no binding
B1: human DIO1 (containing selenocysteine), Flag-tagged, expressed in COS7 cells (enzyme, UniProt P49895 1-249)
chain: MGLPQPGLWLKRLWVLLEVAVHVVVGKVLLILFPDRVKRNILAMGEKTGMTRNPHFSHDNWIPTFFSTQYFWFVLKVRWQRLEDTTELGGLAPNCPVVRLSGQRCNIWEFMQGNRPLVLNFGSCTUPSFMFKFDQFKRLIEDFSSIADFLVIYIEEAHASDGWAFKNNMDIRNHQNLQDRLQAAHLLLARSPQCPVVVDTMQNQSSQLYAALPERLYIIQEGRILYKGKSGPWNYNPEEVRAVLEKLHS
modifications: selenocysteine at 126
